From publication PMC4529304
No constants are given. Whether binding was seen depends on the method and setting. In cells and extracts the contact can be indirect. Some binding calls cover weakened binding; strength is not graded here.

By UniProt entry, the sequences of proteins in these tests, tags left out.
UniProt P46940: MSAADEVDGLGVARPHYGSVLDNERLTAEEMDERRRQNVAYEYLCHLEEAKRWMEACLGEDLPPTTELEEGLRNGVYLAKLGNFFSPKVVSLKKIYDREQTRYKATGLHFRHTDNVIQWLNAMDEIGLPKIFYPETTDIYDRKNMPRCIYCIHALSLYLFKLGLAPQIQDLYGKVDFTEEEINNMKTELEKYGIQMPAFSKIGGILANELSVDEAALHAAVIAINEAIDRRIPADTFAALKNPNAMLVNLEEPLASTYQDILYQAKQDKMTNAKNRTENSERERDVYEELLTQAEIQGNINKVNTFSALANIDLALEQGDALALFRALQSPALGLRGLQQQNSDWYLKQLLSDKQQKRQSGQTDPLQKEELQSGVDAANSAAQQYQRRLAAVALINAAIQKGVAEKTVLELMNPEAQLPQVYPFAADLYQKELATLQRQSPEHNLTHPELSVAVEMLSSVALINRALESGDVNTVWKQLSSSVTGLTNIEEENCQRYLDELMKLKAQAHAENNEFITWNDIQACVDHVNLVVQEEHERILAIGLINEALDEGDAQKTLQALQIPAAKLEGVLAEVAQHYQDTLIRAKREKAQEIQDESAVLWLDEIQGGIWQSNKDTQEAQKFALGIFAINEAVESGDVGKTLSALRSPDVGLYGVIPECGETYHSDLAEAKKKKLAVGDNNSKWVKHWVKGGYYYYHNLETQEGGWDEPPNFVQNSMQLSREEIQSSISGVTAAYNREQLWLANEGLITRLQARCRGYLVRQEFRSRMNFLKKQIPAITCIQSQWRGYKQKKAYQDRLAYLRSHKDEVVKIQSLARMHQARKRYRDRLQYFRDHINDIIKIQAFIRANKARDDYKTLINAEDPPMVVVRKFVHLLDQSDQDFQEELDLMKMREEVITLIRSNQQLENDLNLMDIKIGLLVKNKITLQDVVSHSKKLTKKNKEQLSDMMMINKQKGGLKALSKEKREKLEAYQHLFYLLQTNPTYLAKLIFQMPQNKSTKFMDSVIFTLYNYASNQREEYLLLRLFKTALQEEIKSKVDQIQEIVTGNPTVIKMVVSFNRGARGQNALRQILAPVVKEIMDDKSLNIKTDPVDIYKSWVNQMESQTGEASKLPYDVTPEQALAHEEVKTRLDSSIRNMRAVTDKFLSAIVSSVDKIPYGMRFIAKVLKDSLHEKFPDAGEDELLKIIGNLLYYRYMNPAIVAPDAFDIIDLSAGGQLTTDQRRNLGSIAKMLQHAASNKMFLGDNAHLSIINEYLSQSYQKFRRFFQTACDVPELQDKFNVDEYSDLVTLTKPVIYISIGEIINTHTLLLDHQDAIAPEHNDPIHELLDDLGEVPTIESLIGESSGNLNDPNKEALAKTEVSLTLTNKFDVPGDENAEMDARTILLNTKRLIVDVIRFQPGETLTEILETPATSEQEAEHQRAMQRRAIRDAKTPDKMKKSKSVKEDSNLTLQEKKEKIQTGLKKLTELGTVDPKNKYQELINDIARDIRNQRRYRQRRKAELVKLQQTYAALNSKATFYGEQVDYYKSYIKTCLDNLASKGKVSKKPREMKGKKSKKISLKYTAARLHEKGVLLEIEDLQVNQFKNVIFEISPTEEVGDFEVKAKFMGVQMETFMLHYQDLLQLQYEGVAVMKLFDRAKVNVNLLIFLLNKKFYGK
UniProt P35222: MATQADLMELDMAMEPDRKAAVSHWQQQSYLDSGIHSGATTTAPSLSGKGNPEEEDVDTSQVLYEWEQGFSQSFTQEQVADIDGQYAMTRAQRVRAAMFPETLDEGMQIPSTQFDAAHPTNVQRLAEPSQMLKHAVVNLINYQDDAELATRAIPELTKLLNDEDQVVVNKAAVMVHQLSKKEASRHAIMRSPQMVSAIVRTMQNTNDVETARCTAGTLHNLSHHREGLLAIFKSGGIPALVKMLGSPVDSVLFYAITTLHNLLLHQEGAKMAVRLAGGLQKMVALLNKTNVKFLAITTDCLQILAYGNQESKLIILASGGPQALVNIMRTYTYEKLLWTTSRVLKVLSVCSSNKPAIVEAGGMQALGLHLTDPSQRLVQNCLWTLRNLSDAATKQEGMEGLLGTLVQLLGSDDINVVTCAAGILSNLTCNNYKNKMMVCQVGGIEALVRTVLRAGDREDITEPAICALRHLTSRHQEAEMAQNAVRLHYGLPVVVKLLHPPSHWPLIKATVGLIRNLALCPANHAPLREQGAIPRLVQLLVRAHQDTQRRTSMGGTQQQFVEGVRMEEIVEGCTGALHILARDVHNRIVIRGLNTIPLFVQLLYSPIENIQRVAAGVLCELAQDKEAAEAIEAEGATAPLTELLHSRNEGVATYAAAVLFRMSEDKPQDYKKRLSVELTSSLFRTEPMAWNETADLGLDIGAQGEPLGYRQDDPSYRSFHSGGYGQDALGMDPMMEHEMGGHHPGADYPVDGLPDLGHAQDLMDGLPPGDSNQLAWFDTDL

Target: IQ-domain GTPase-activating protein 1 (IQGAP1) (human (endogenous in HepG2)) (UniProt P46940)
Experiment: co-IP; 500 ug HepG2 cell lysate in 20 mM Tris pH 7.5, 150 mM NaCl, 1% Triton X-100, protease inhibitors; 1-2 ug anti-IQGAP1 antibodies on protein A+G sepharose, mouse IgG as control; 4 washes; western blot

binding: binds
Substance: β-catenin (from UniProt P35222 1-781)
